Source: patent US20020103111A1 (Millennium Pharmaceuticals, Inc., priority 1996, published 2002)
Square brackets hold non-standard residues; d marks the D form. Ends that are not written are not given here. NMeL = CN[C@@H](CC(C)C)C(=O)O

experiment: general procedure: Fmoc solid-phase peptide synthesis; Rink Amide AM resin (Fmoc-Am-PS, 0.5 mmol/g); HBTU/NMM or PYBOP/NMM, double coupling; settings: whole synthesis, scale of the general procedure 50 mg or 100 mg resin (0.5 mmol/g)

Row | Substance | crude HPLC purity [%]
1 | 2-Anc-Leu-Asp-Thr-Ser-Leu | 63
2 | Ac-Arg-Gly-Leu-Asp-Thr | 45
3 | Ac-Cys*-Gly-Leu-Asp-Thr-Ser-Leu-Gly-Cys* | 80
4 | Ac-Cys*-Leu-Asp-Thr-Ser-Leu-Cys* | 67
5 | Ac-GLDTSL | 67
6 | Ac-Gly-Leu-Asp-Thr-Ser | 73
7 | Ac-Leu-Asp-Ala-Ser-Leu | 78
8 | Ac-Leu-Asp-HyP-Ser-Leu | 79
9 | Ac-Leu-Asp-Ser-Ser-Leu | 86
10 | Ac-Leu-Asp-Thr-Ser-Phe | 80
11 | Ac-Leu-Asp-Thr-Thr-Leu | 71
12 | Ac-Leu-Asp-Val-Ser-Leu | 93
13 | Ac-Leu-Glu-Thr-Ser-Leu | 85
14 | Ac-Leu-Phe-Thr-Ser-Leu | 86
15 | Ac-Lle-Asp-Thr-Ser-Leu | 79
16 | Ac-MeLeu-Asp-Thr-Ser-Leu | 65

Row | Substance | crude HPLC purity [%]
17 | Ac-[NMeL]LDTSL | 50
18 | Bipa-Leu-Asp-Thr-Ser-Leu | 80
19 | Cpc-Asp-Thr-Ser-Leu | 73
20 | Dpa-Leu-Asp-Thr-Ser-Leu | 87
21 | Dphb-Leu-Asp-Thr-Ser-Leu | 87
22 | Flc-Leu-Asp-Thr-Ser-Leu | 71
23 | Hbz-Leu-Asp-Thr-Ser-Leu | 77
24 | Paa-Leu-Asp-Thr-Ser-Leu | 81
25 | Pba-Asp-Thr-Ser-Leu | 85
26 | Pba-Leu-Ala-Thr-Ser-Leu | 84
27 | Pba-Leu-Tyr-Thr-Ser-Leu | 95
28 | Pba-Pro-Leu-Asp-Thr-Ser-Leu | 77
29 | Pca-Leu-Asp-Thr-Ser-Leu | 80
30 | Pha-Leu-Asp-Thr-Ser-Leu | 86
31 | [NMeL]LDTSL | 86

same assay, conditions: whole synthesis, scale of the general procedure 50 mg or 100 mg resin (0.5 mmol/g), run 1

Row | Substance | crude HPLC purity
32 | Ac-Leu-Asp-Thr-Ser-Leu | 75%
33 | Ac-Leu-Asp-Thr-Ser-Leu [0104-1A] | 47%
34 | Ac-Leu-Asp-Thr-Ser-Leu [00389-1A] | 61%
35 | Ac-RGLDTS | 32,34%
36 | Ac-RGLDTSL | 34,41%
37 | Npa-Leu-Asp-Thr-Ser-Leu | 38,48%
